The assay has as its target FLAG-V5-tagged U2-B” (FV5-U2-B”) (UniProt P08579). Nature of the assay: affinity purification with mass spectrometry; in vitro splicing reaction of NEB” nuclear extract with AdML pre-mRNA and ATPγS, Sephacryl-S500 gel filtration, pooled spliceosome fractions on anti-FLAG M2 Affinity Gel, mass spectrometry; two independent experiments. (In general: SEC sorts molecules by how far they enter the pores of the column.)

Protein sequences, listed by entry. Tags and fused reporters are not part of them.
UniProt P08579: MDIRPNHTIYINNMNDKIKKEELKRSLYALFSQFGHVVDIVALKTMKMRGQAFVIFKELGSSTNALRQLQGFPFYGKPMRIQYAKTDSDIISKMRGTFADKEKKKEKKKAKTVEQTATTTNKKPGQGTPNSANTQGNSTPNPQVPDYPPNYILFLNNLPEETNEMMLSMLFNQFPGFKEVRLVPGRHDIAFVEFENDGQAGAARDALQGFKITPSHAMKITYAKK

No constants are given. Whether binding was seen depends on the method and setting. Binding seen in cells or lysates may run through a third protein. These calls come from enrichment with a bait or labelling near it, and not all partners need be listed. A no says only that the protein was not detected with the bait.

B1: RCF1 (protein, UniProt P35251 1-1148)
chain: MDIRKFFGVIPSGKKLVSETVKKNEKTKSDEETLKAKKGIKEIKVNSSRKEDDFKQKQPSKKKRIIYDSDSESEETLQVKNAKKPPEKLPVSSKPGKISRQDPVTYISETDEEDDFMCKKAASKSKENGRSTNSHLGTSNMKKNEENTKTKNKPLSPIKLTPTSVLDYFGTGSVQRSNKKMVASKRKELSQNTDESGLNDEAIAKQLQLDEDAELERQLHEDEEFARTLAMLDEEPKTKKARKDTEAGETFSSVQANLSKAEKHKYPHKVKTAQVSDERKSYSPRKQSKYESSKESQQHSKSSADKIGEVSSPKASSKLAIMKRKEESSYKEIEPVASKRKENAIKLKGETKTPKKTKSSPAKKESVSPEDSEKKRTNYQAYRSYLNREGPKALGSKEIPKGAENCLEGLIFVITGVLESIERDEAKSLIERYGGKVTGNVSKKTNYLVMGRDSGQSKSDKAAALGTKIIDEDGLLNLIRTMPGKKSKYEIAVETEMKKESKLERTPQKNVQGKRKISPSKKESESKKSRPTSKRDSLAKTIKKETDVFWKSLDFKEQVAEETSGDSKARNLADDSSENKVENLLWVDKYKPTSLKTIIGQQGDQSCANKLLRWLRNWQKSSSEDKKHAAKFGKFSGKDDGSSFKAALLSGPPGVGKTTTASLVCQELGYSYVELNASDTRSKSSLKAIVAESLNNTSIKGFYSNGAASSVSTKHALIMDEVDGMAGNEDRGGIQELIGLIKHTKIPIICMCNDRNHPKIRSLVHYCFDLRFQRPRVEQIKGAMMSIAFKEGLKIPPPAMNEIILGANQDIRQVLHNLSMWCARSKALTYDQAKADSHRAKKDIKMGPFDVARKVFAAGEETAHMSLVDKSDLFFHDYSIAPLFVQENYIHVKPVAAGGDMKKHLMLLSRAADSICDGDLVDSQIRSKQNWSLLPAQAIYASVLPGELMRGYMTQFPTFPSWLGKHSSTGKHDRIVQDLALHMSLRTYSSKRTVNMDYLSLLRDALVQPLTSQGVDGVQDVVALMDTYYLMKEDFENIMEISSWGGKPSPFSKLDPKVKAAFTRAYNKEAHLTPYSLQAIKASRHSTSPSLDSEYNEELNEDDSQSDEKDQDAIETDAMIKKKTKSSKPSKPEKDKEPRKGKGKSSKK
On to B1, for which the binding entry is recorded as “no binding”.

B2: Polycomb group protein PHC1 (protein, UniProt P78364 1-1004)
chain: METESEQNSNSTNGSSSSGGSSRPQIAQMSLYERQAVQALQALQRQPNAAQYFHQFMLQQQLSNAQLHSLAAVQQATIAASRQASSPNTSTTQQQTTTTQASINLATTSAAQLISRSQSVSSPSATTLTQSVLLGNTTSPPLNQSQAQMYLRPQLGNLLQVNRTLGRNVPLASQLILMPNGAVAAVQQEVPSAQSPGVHADADQVQNLAVRNQQASAQGPQMQGSTQKAIPPGASPVSSLSQASSQALAVAQASSGATNQSLNLSQAGGGSGNSIPGSMGPGGGGQAHGGLGQLPSSGMGGGSCPRKGTGVVQPLPAAQTVTVSQGSQTEAESAAAKKAEADGSGQQNVGMNLTRTATPAPSQTLISSATYTQIQPHSLIQQQQQIHLQQKQVVIQQQIAIHHQQQFQHRQSQLLHTATHLQLAQQQQQQQQQQQQQQQPQATTLTAPQPPQVPPTQQVPPSQSQQQAQTLVVQPMLQSSPLSLPPDAAPKPPIPIQSKPPVAPIKPPQLGAAKMSAAQQPPPHIPVQVVGTRQPGTAQAQALGLAQLAAAVPTSRGMPGTVQSGQAHLASSPPSSQAPGALQECPPTLAPGMTLAPVQGTAHVVKGGATTSSPVVAQVPAAFYMQSVHLPGKPQTLAVKRKADSEEERDDVSTLGSMLPAKASPVAESPKVMDEKSSLGEKAESVANVNANTPSSELVALTPAPSVPPPTLAMVSRQMGDSKPPQAIVKPQILTHIIEGFVIQEGAEPFPVGCSQLLKESEKPLQTGLPTGLTENQSGGPLGVDSPSAELDKKANLLKCEYCGKYAPAEQFRGSKRFCSMTCAKRYNVSCSHQFRLKRKKMKEFQEANYARVRRRGPRRSSSDIARAKIQGKCHRGQEDSSRGSDNSSYDEALSPTSPGPLSVRAGHGERDLGNPNTAPPTPELHGINPVFLSSNPSRWSVEEVYEFIASLQGCQEIAEEFRSQEIDGQALLLLKEEHLMSAMNIKLGPALKICAKINVLKET
In the case of B2, the binding result is on record as “no binding”.

B3: SMARCAD1 (protein, UniProt Q9H4L7 1-1026)
chain: MNLFNLDRFRFEKRNKIEEAPEATPQPSQPGPSSPISLSAEEENAEGEVSRANTPDSDITEKTEDSSVPETPDNERKASISYFKNQRGIQYIDLSSDSEDVVSPNCSNTVQEKTFNKDTVIIVSEPSEDEESQGLPTMARRNDDISELEDLSELEDLKDAKLQTLKELFPQRSDNDLLKLIESTSTMDGAIAAALLMFGDAGGGPRKRKLSSSSEPYEEDEFNDDQSIKKTRLDHGEESNESAESSSNWEKQESIVLKLQKEFPNFDKQELREVLKEHEWMYTEALESLKVFAEDQDMQYVSQSEVPNGKEVSSRSQNYPKNATKTKLKQKFSMKAQNGFNKKRKKNVFNPKRVVEDSEYDSGSDVGSSLDEDYSSGEEVMEDGYKGKILHFLQDASIGELTLIPQCSQKKAQKITELRPFNSWEALFTKMSKTNGLSEDLIWHCKTLIQERDVVIRLMNKCEDISNKLTKQVTMLTGNGGGWNIEQPSILNQSLSLKPYQKVGLNWLALVHKHGLNGILADEMGLGKTIQAIAFLAYLYQEGNNGPHLIVVPASTIDNWLREVNLWCPTLKVLCYYGSQEERKQIRFNIHSRYEDYNVIVTTYNCAISSSDDRSLFRRLKLNYAIFDEGHMLKNMGSIRYQHLMTINANNRLLLTGTPVQNNLLELMSLLNFVMPHMFSSSTSEIRRMFSSKTKSADEQSIYEKERIAHAKQIIKPFILRRVKEEVLKQLPPKKDRIELCAMSEKQEQLYLGLFNRLKKSINNLEKNTEMCNVMMQLRKMANHPLLHRQYYTAEKLKEMSQLMLKEPTHCEANPDLIFEDMEVMTDFELHVLCKQYRHINNFQLDMDLILDSGKFRVLGCILSELKQKGDRVVLFSQFTMMLDILEVLLKHHQHRYLRLDGKTQISERIHLIDEFNTDMDIFVFLLSTKAGGLGINLTSANVVILHDIDCNPYNDKQAEDRCHRVGQTKEVLVIKLISQGTIEESMLKINQQKLKLEQDMTTVDEGDEGSMPADIATLLKTSMGL
As for B3, the binding entry was “no binding”.

B4: TADA2beta (protein, UniProt Q86TJ2 1-420)
chain: MAELGKKYCVYCLAEVSPLRFRCTECQDIELCPECFSAGAEIGHHRRYHGYQLVDGGRFTLWGPEAEGGWTSREEQLLLDAIEQFGFGNWEDMAAHVGASRTPQEVMEHYVSMYIHGNLGKACIPDTIPNRVTDHTCPSGGPLSPSLTTPLPPLDISVAEQQQLGYMPLRDDYEIEYDQDAETLISGLSVNYDDDDVEIELKRAHVDMYVRKLKERQRRKNIARDYNLVPAFLGKDKKEKEKALKRKITKEEKELRLKLRPLYQFMSCKEFDDLFENMHKEKMLRAKIRELQRYRRNGITKMEESAEYEAARHKREKRKENKNLAGSKRGKEDGKDSEFAAIENLPGFELLSDREKVLCSSLNLSPARYVTVKTIIIKDHLQKRQGIPSKSRLPSYLDKVLKKRILNFLTESGWISRDAS
B4: the binding entry is reported as “no binding”.

These data come from paper PMC5035054.
